In PMC6023872 one finds binding data, which are given here for one molecule.

No constants are given. Whether binding was seen depends on the method and setting. Binding seen in cells or lysates may run through a third protein. Some results given as binding are weak or reduced against the parent protein; the word gives no strength.

The target of this assay is CENP-A (UniProt O35216). The assay is described as follows: FRET or BRET; single-molecule FRET by sptPALM in mouse ES cells (fixed and live), donor mEos3.2 on one protein, acceptor JF646 on the other (through HaloTag or SNAP tag); read out as decreased donor intensity and longer track length (on-state time); 500 ms exposures, 5 mM Trolox; 5-fold excess of HaloTag-tagged CENP-A for CENP-A/CENP-A. On the technique in general: BRET reads energy transfer from a luciferase to a nearby fluorophore.

B1: CENP-A (protein, UniProt O35216 1-134)
chain: MGPRRKPQTPRRRPSSPAPGPSRQSSSVGSQTLRRRQKFMWLKEIKTLQKSTDLLFRKKPFSMVVREICEKFSRGVDFWWQAQALLALQEAAEAFLIHLFEDAYLLSLHAGRVTLFPKDIQLTRRIRGFEGGLP
modifications: JF646 HaloTag ligand on the HaloTag of the acceptor copy
For the molecule B1, the binding entry is recorded as “binds”.
